{"source": "PubChem BioAssay AID540276", "about": "(National Center for Advancing Translational Sciences (NCATS), 2011)", "note": "Screen size: about 300,000 compounds; about 5,400 (1.8%) were called active. Inconclusive results, whose numbers are uncertain, are shown with a selection of clear calls. The call rests on the fitted dose curve; tested in HEK293 cells. Potencies beside an inconclusive call are fits to weak or partial responses and may not hold up. On the % scale 0 is the no-effect control and ±100 the full control effect; potency means the concentration at half of the fitted maximal effect.", "data": [{"assay": "qHTS for inhibitors of binding or entry into cells for Marburg Virus", "conditions": "Marburg virus pseudotyped entry inhibition, cell reporter; activity change, negative = inhibition: at 37.8 µM (top of the series) unless noted", "values": [{"smiles": "CN1CCCN(C(=O)CNC(=O)c2ccccc2F)CC1", "activity change, negative = inhibition": "inactive: 1.13%"}, {"smiles": "CCn1nc(C)c(CNC(=O)CCc2nnc(Cc3c[nH]c4ccccc34)o2)c1C", "activity change, negative = inhibition": "inactive: -3.71% [at 46.1 µM]"}, {"smiles": "CCOc1cc(C(=S)N2CCC(O)CC2)ccc1OS(=O)(=O)c1ccc(Br)cc1", "Potency": "inconclusive: 5.8 µM [inhibitor, partial curve]"}, {"smiles": "O=C(c1cn(-c2ccccc2)nc1-c1ccccc1)N1CCN(c2ccccn2)CC1", "Potency": "inconclusive: 29.1 µM [inhibitor, single point]"}, {"smiles": "COc1ccccc1-c1cc(C(F)(F)F)nc(S(=O)(=O)CCCC(=O)NC(C)C)n1", "Potency": "inconclusive: 35.5 µM [inhibitor, single point]"}, {"smiles": "Cc1ccc(NC(=O)c2cc(=O)n(Cc3ccccc3)c(=O)[nH]2)cc1C", "Potency": "inconclusive: 10 µM [inhibitor, partial curve, poor fit]"}, {"smiles": "CCS(=O)(=O)c1ncc(CO)n1CCc1ccccc1", "Potency": "inconclusive: 1.26 µM [inhibitor, single point]"}, {"smiles": "O=C(N/N=C/c1cccnc1)c1ccccc1OCc1ccc(Br)cc1", "Potency": "inconclusive: 1 µM [inhibitor, full curve, poor fit]"}, {"smiles": "O=C(NN1C(=O)NC2(CCCCC2)C1=O)c1ccc(-c2ccc(Cl)cc2)o1", "activity change, negative = inhibition": "inactive: 13.1%"}, {"smiles": "CC(CCc1ccccc1)N1CCN(C)CC1", "note": "(stereo not given)", "activity change, negative = inhibition": "inactive: -6.46%"}, {"smiles": "CCN(CC)CC(C)(C)C(=O)/C=C/c1ccc(/C=C/C(=O)C(C)(C)CN(CC)CC)cc1", "Potency": "active: 1.41 µM"}, {"smiles": "Cc1cc(N=Cc2c(O)n(-c3ccc4c(c3)OCO4)c(=O)c3ccccc23)ccn1", "Potency": "inconclusive: 29.1 µM [inhibitor, single point]"}, {"smiles": "NC(=O)Cn1c(=O)n(-c2ccc(F)c(Cl)c2)c(=O)c2sc3ccccc3c21", "activity change, negative = inhibition": "inactive: 16.5% [at 46.1 µM]"}, {"smiles": "Cc1ccc2c(c1)C1(SCCS1)C(=O)N2", "Potency": "inconclusive: 29.1 µM [inhibitor, single point]"}, {"smiles": "COC(=O)c1cccc(NC(=S)N2CCN(C)CC2)c1", "activity change, negative = inhibition": "inactive: 2.53%"}, {"smiles": "CCOC(=O)Cc1csc(NC(=O)/C=C\\c2ccccc2Cl)n1", "Potency": "inconclusive: 35.5 µM [inhibitor, single point]"}, {"smiles": "CCCN1CCc2c(sc(NC(=O)CCS(=O)(=O)c3ccccc3)c2C(N)=O)C1", "activity change, negative = inhibition": "inactive: 1.98%"}, {"smiles": "CSc1cccc(NC(=O)C2CCN(S(=O)(=O)c3ccc(F)cc3)CC2)c1", "activity change, negative = inhibition": "inactive: -19.6%"}, {"smiles": "CSc1nnc(NC(=O)c2nc(S(=O)(=O)Cc3ccc(C)cc3)ncc2Cl)s1", "Potency": "inconclusive: 35.5 µM [inhibitor, single point]"}, {"smiles": "O=C(c1cc2c(s1)-c1ccccc1OC2)N1CCC2(CC1)OCCO2", "activity change, negative = inhibition": "inactive: -10.9%"}, {"smiles": "CCC(=O)OCCNc1cc(Sc2nc3ccccc3[nH]2)c2nonc2c1[N+](=O)[O-]", "Potency": "inconclusive: 25.1 µM [inhibitor, single point]"}, {"smiles": "S=C(NCc1ccc(Cl)cc1)Nc1ccccc1Cl", "Potency": "inconclusive: 5.62 µM [activator, single point]"}, {"smiles": "Oc1oc(-c2ccc(Br)cc2)nc1/C=N/c1ccccn1", "Potency": "inconclusive: 1.58 µM [activator, single point]"}, {"smiles": "COc1ccccc1N1CCN(C(=O)C2CCN(C(=O)c3ccccc3C)CC2)CC1", "Potency": "inconclusive: 1.12 µM [inhibitor, full curve, poor fit]"}, {"smiles": "CCN(CC)S(=O)(=O)c1ccc(NC(=O)CN(c2ccc(OC)cc2OC)S(C)(=O)=O)cc1", "Potency": "inconclusive: 16.4 µM [inhibitor, partial curve, poor fit]"}, {"smiles": "CC(Cc1cccnc1)NC(=O)c1cc(COc2ccc(F)cc2F)on1", "note": "(stereo not given)", "activity change, negative = inhibition": "inactive: -26.6%"}, {"smiles": "CCOc1ccc(/C=C2\\SC(=S)NC2=O)cc1OC", "activity change, negative = inhibition": "inactive: 6.72%"}, {"smiles": "Clc1ccc(C[n+]2cc(-c3ccccc3)n3c2CCC3)cc1Cl", "Potency": "inconclusive: 10 µM [inhibitor, partial curve, poor fit]"}, {"smiles": "CCn1c(/C(C#N)=N/O)nc2ccccc21", "activity change, negative = inhibition": "inactive: -5.03%"}, {"smiles": "Cc1ccc(NS(=O)(=O)c2cc(NC(=O)C(C)Oc3ccccc3)ccc2C)c(C)c1", "note": "(stereo not given)", "Potency": "active: 4.61 µM"}, {"smiles": "CCCCC(C(=O)O)C(C)CC(=O)NNC(=O)c1ccco1", "note": "(stereo not given)", "activity change, negative = inhibition": "inactive: 11.7% [at 46.1 µM]"}, {"smiles": "COc1ccc(NC(=O)CN(C)C(=O)c2cc(-c3ccccc3)nc3ccccc23)cc1", "Potency": "inconclusive: 31.6 µM [inhibitor, single point]"}, {"smiles": "O=C(c1cc(COc2ccc(F)cc2F)on1)N1CCCC(c2ccccc2)C1", "note": "(stereo not given)", "Potency": "inconclusive: 5.01 µM [inhibitor, full curve, poor fit]"}, {"smiles": "COc1cc(C(=O)NCC(=O)N/N=C(/C)c2cccs2)cc(OC)c1OC", "Potency": "inconclusive: 0.0891 µM [activator, full curve, poor fit]"}, {"smiles": "CCCn1c(SCc2nc(-c3ccccc3OCC)no2)nnc1-c1ccc(Cl)cc1", "activity change, negative = inhibition": "inactive: -15.7% [at 46.1 µM]"}, {"smiles": "COC(=O)CSc1nnc(-c2ccco2)n1Cc1ccco1", "activity change, negative = inhibition": "inactive: -0.376%"}, {"smiles": "CN(C)c1nc(N2CCN(c3ccc(F)cc3)CC2)c(C#N)c(=O)o1", "Potency": "inconclusive: 0.316 µM [inhibitor, partial curve, poor fit]"}, {"smiles": "Cc1ccc(C(C(=O)NCc2ccccc2)N(Cc2ccco2)C(=O)c2snc(C(N)=O)c2N)o1", "note": "(stereo not given)", "Potency": "inconclusive: 35.5 µM [inhibitor, single point]"}, {"smiles": "CCC(C(=O)NC1CCCC1)N(Cc1cccs1)C(=O)Cn1nnc(-c2ccc(OC)c(OC)c2)n1", "note": "(stereo not given)", "Potency": "inconclusive: 16.4 µM [inhibitor, single point]"}, {"smiles": "N#Cc1nc(COc2cccc(Cl)c2)oc1NCCc1ccccc1", "activity change, negative = inhibition": "inactive: -7.91% [at 46.1 µM]"}, {"smiles": "COc1ccc2c(c1OC)C(=O)OC2Nc1nc(-c2ccccc2)cs1", "note": "(stereo not given)", "Potency": "inconclusive: 15.8 µM [inhibitor, single point]"}, {"smiles": "O=C(CP(=O)(c1ccccc1)c1ccccc1)N/N=C/c1cc(Br)cc(Br)c1O", "Potency": "inconclusive: 10 µM [inhibitor, partial curve, poor fit]"}, {"smiles": "Cc1cc2cc(CN(CCCN3CCOCC3)C(=O)NC3CCCCC3)c(=O)[nH]c2cc1C", "Potency": "inactive"}, {"smiles": "Cc1cc(C)c(S(=O)(=O)Nc2ccc(-c3cn4ccccc4n3)cc2)c(C)c1", "Potency": "inconclusive: 0.316 µM [inhibitor, full curve, poor fit]"}, {"smiles": "Cc1c(NS(=O)(=O)c2ccc3[nH]c(=O)[nH]c3c2)c(=O)n(-c2ccccc2)n1C", "Potency": "inconclusive: 1.16 µM [activator, single point]"}]}]}
